Among the data in paper PMC3711543 are binding values, retold here.

Amino acid sequences for entries named in this document (tags omitted).
UniProt O74456: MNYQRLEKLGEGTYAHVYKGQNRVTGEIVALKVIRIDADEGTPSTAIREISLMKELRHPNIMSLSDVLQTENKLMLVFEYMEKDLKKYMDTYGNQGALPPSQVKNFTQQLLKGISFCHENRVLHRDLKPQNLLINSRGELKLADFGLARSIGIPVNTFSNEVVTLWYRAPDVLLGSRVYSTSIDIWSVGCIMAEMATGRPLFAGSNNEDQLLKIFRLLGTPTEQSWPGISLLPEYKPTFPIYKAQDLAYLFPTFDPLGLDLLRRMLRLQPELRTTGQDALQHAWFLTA

Assay [1] addresses T1, FLAG-Cek1p (N-terminally FLAG-tagged Cek1p) (S. pombe) (UniProt P38938).
T1 sequence: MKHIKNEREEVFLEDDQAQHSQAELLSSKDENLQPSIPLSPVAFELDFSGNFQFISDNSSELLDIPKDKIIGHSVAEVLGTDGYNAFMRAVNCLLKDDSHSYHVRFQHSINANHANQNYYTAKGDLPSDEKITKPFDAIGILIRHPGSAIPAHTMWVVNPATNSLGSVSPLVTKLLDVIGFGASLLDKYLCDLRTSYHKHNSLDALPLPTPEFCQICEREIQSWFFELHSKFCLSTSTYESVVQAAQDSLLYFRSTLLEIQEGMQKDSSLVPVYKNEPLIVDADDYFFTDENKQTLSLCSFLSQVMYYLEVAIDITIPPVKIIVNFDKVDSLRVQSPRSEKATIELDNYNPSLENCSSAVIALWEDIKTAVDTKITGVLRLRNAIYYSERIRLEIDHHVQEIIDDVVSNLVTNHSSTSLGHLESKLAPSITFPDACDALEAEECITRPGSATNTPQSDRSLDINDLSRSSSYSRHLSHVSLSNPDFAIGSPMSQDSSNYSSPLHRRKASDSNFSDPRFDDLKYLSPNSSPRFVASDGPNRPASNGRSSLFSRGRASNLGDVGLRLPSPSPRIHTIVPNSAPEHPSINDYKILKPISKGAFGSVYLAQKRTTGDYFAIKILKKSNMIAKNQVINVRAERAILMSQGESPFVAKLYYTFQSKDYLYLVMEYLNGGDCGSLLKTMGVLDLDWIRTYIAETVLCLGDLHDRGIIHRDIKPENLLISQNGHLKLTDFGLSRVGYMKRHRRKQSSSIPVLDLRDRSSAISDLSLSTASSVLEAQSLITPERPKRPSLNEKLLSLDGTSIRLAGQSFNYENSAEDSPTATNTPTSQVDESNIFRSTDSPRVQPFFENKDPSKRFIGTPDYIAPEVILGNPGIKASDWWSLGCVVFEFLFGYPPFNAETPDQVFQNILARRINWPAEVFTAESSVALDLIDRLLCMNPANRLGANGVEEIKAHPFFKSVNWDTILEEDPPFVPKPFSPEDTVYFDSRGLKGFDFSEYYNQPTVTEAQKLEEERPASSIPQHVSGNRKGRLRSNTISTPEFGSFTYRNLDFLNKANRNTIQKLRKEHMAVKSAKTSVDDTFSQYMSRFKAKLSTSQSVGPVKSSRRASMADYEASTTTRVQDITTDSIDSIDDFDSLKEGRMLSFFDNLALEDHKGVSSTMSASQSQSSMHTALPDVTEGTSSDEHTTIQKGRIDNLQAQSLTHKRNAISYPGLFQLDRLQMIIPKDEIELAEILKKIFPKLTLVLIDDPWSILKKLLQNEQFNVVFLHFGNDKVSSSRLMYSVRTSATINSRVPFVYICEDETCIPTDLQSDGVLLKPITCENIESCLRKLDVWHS
The experiment in a line: co-IP; S. pombe lysate (~5 mg) with anti-FLAG (M2) antibody and protein G Sepharose, 150 mM NaCl, 4 hr at 4°C; Western blot with anti-HA and anti-FLAG.

Assay [2] has as its target T2, FLAG-Psl1p (FLAG-Spbc20f10.10p) (S. pombe) (UniProt O42979).
T2 sequence: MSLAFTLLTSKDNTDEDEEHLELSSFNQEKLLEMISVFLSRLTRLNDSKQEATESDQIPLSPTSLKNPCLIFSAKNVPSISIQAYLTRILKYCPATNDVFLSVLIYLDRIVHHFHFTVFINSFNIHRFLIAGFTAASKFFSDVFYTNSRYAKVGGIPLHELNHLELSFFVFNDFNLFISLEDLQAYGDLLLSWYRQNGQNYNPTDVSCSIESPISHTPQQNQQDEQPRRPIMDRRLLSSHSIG
Described as above.

These are yes or no findings as the source states them, for the method shown. In cells and extracts the contact can be indirect. Some entries that bind do so weakly or less than the wild type. Tags and fused reporters may be left off the sequences shown.

For “Pef1p-3HA (triple HA-tagged Pef1p) (from UniProt O74456 1-288)”, the binding entry in assay [1] and in assay [2] was “binds” each time.
